In PMC8141794:
Changes are numbered by the printed parent chain. Results are given in words; binding and its absence hold for the method and conditions named. Binding seen in cells or lysates may run through a third protein. Some entries that bind do so weakly or less than the wild type. Tags and fused reporters may be left off the sequences shown.

The chains behind the UniProt entries cited, without tags or fusion partners.
UniProt Q8N6T3: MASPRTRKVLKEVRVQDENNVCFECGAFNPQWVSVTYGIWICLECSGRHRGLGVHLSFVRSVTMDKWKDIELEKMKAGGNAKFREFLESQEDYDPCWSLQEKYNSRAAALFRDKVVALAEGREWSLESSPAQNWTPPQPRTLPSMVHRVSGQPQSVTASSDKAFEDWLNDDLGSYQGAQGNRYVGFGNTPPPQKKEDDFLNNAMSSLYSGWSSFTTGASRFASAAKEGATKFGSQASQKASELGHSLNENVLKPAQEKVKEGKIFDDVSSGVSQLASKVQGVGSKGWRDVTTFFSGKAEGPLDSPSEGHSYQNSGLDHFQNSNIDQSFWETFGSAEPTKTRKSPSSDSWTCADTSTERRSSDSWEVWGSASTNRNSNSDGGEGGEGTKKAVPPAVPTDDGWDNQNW

Experiments:
[1] = target: T1, GST-C-terminus EAAT3-F508A (human) (UniProt P43005); test: pull-down; purified GST fusion proteins (30 μg) incubated with lysates (100 μg) of HEK293 cells overexpressing His-ARFGAP1 in 50 mM Tris HCl pH 7.4, 150 mM NaCl, 0.1% Triton X-100, 2 h on ice, then glutathione sepharose 4B 2 h at 4°C; immunoblot with anti-hexahistidine and anti-GST; only the target purified
T1 sequence: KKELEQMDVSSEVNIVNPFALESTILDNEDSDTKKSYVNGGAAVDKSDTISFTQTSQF

[2] = target: T2, GST-C-terminus EAAT3-WT (human) (UniProt P43005); test: as above
T2 sequence: T1 sequence with A42F

Human His6-ARFGAP1 (from UniProt Q8N6T3 1-406)
binding [1]: binds | binding [2]: binds
